Values quoted from earlier work in patent US12151062B2, “Compositions and devices to administer pharmaceutical compositions nasally” (BOARD OF REGENTS, THE UNIVERSITY OF TEXAS SYSTEM, priority 2016, dated 2024).
Like-named read-outs stand apart in the source and are kept apart here.

Details: rats

CN1CC[C@]23c4c5ccc(O)c4O[C@H]2[C@@H](O)C=C[C@H]3[C@H]1C5 [Morphine]
Brain/Plasma AUC ratio (after i.v. use): 0.1 after
Brain/Plasma AUC ratio (solution (PBS buffer at pH 7.4), after i.n. use): of 3 after
